# Assay results as given in the supplement of paper PMC4604168 (melanoma cell lines).
# Some of the results follow. Many values rest on one well or one pass, so single values are uncertain.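 The apoptosis fraction was the count of cleaved-PARP antibody-stained nuclei relative to all DNA-stained nuclei, imaged in 1,536-well plates. Screening doses were set so most cells survived, and baseline and induced cleaved-PARP levels vary greatly across cell lines.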
# Key:
# Assay in all cases: cleaved PARP positive nuclei fraction relative to DMSO control; melanoma cells; higher = more apoptosis
# Details in all cases: library dose: low library concentration; 72 h
# MZ2-MEL = tested on: MZ2-MEL
# MeWo = tested on: MeWo
# RPMI7951 = tested on: RPMI7951
# RVH-421 = tested on: RVH-421
# SkMel28 = tested on: SkMel28
# SkMel2 = tested on: SkMel2
# SkMel30 = tested on: SkMel30
# UACC62 = tested on: UACC62
SMILES,cleaved PARP positive nuclei fraction (MZ2-MEL) [%],cleaved PARP positive nuclei fraction (MeWo) [%],cleaved PARP positive nuclei fraction (RPMI7951) [%],cleaved PARP positive nuclei fraction (RVH-421) [%],cleaved PARP positive nuclei fraction (SkMel28) [%],cleaved PARP positive nuclei fraction (SkMel2) [%],cleaved PARP positive nuclei fraction (SkMel30) [%],cleaved PARP positive nuclei fraction (UACC62) [%]
"C[C@]1(O)C[C@@H](c2nc(-c3ccc4ccc(-c5ccccc5)nc4c3)c3c(N)nccn32)C1 + C[C@]1(c2nc3c(C(N)=O)cccc3[nH]2)CCCN1 [Veliparib] (first compound 0.4 µM, partner dose 1.4 µM)",114,82.3,99.2,164,86.5,65.6,55.8,93.6
"CC(=O)O[C@@]12CO[C@@H]1C[C@H](O)[C@@]1(C)C(=O)[C@H](O)C3=C(C)[C@@H](OC(=O)[C@H](O)[C@@H](NC(=O)OC(C)(C)C)c4ccccc4)C[C@@](O)([C@@H](OC(=O)c4ccccc4)[C@H]21)C3(C)C [Docetaxel] + CCCS(=O)(=O)Nc1ccc(F)c(C(=O)c2c[nH]c3ncc(Cl)cc23)c1F [PLX4720] (first compound 0.0001 µM, partner dose 0.08 µM)",915,440,198,309,593,448,415,756
"CC(=O)O[C@@]12CO[C@@H]1C[C@H](O)[C@@]1(C)C(=O)[C@H](O)C3=C(C)[C@@H](OC(=O)[C@H](O)[C@@H](NC(=O)OC(C)(C)C)c4ccccc4)C[C@@](O)([C@@H](OC(=O)c4ccccc4)[C@H]21)C3(C)C [Docetaxel] + COc1ccc(Cl)c(Nc2nc3ccccc3nc2NS(=O)(=O)c2cccc(NC(=O)C(C)(C)N)c2)c1 [XL147] (first compound 0.0001 µM, partner dose 0.8 µM)",373,556,178,578,271,732,248,474
"CCN(CC)CCNC(=O)c1c(C)[nH]c(/C=C2\C(=O)Nc3ccc(F)cc32)c1C [sunitinib] + CCCS(=O)(=O)Nc1ccc(F)c(C(=O)c2c[nH]c3ncc(Cl)cc23)c1F [PLX4720] (first compound 0.4 µM, partner dose 0.08 µM)",35.8,40.8,48.2,137,92.5,66.3,256,466
"COc1ccc(C2=N[C@@H](c3ccc(Cl)cc3)[C@@H](c3ccc(Cl)cc3)N2C(=O)N2CCNC(=O)C2)c(OC(C)C)c1 [Nutlin-3] + C=C(c1ccc(C(=O)O)cc1)c1cc2c(cc1C)C(C)(C)CCC2(C)C [Bexarotene] (first compound 0.1 µM, partner dose 2 µM)",33,76.9,21.6,156,546,124,75.8,198
"CC(=O)O[C@@]12CO[C@@H]1C[C@H](O)[C@@]1(C)C(=O)[C@H](O)C3=C(C)[C@@H](OC(=O)[C@H](O)[C@@H](NC(=O)OC(C)(C)C)c4ccccc4)C[C@@](O)([C@@H](OC(=O)c4ccccc4)[C@H]21)C3(C)C [Docetaxel] + Cc1cc(Nc2cc(N3CCN(C)CC3)nc(/C=C/c3ccccc3)n2)n[nH]1 [ENMD2076] (first compound 0.0001 µM, partner dose 0.04 µM)",726,339,170,175,188,592,104,380
"CC(=O)O[C@@]12CO[C@@H]1C[C@H](O)[C@@]1(C)C(=O)[C@H](O)C3=C(C)[C@@H](OC(=O)[C@H](O)[C@@H](NC(=O)OC(C)(C)C)c4ccccc4)C[C@@](O)([C@@H](OC(=O)c4ccccc4)[C@H]21)C3(C)C [Docetaxel] + C=CCNC1=C2C[C@@H](C)C[C@H](OC)[C@H](O)[C@@H](C)/C=C(\C)[C@H](OC(N)=O)[C@@H](OC)/C=C\C=C(/C)C(=O)NC(=CC1=O)C2=O [Tanespimycin] (first compound 0.0001 µM, partner dose 0.002 µM)",950,453,538,72.2,207,1070,428,598
"COc1ccc(C2=N[C@@H](c3ccc(Cl)cc3)[C@@H](c3ccc(Cl)cc3)N2C(=O)N2CCNC(=O)C2)c(OC(C)C)c1 [Nutlin-3] + CCCS(=O)(=O)Nc1ccc(F)c(C(=O)c2c[nH]c3ncc(Cl)cc23)c1F [PLX4720] (first compound 0.1 µM, partner dose 0.08 µM)",165,132,88.1,216,162,179,65.9,133
"CC(=O)O[C@@]12CO[C@@H]1C[C@H](O)[C@@]1(C)C(=O)[C@H](O)C3=C(C)[C@@H](OC(=O)[C@H](O)[C@@H](NC(=O)OC(C)(C)C)c4ccccc4)C[C@@](O)([C@@H](OC(=O)c4ccccc4)[C@H]21)C3(C)C [Docetaxel] + NC1(c2ccc(-c3nc4ccn5c(=O)[nH]nc5c4cc3-c3ccccc3)cc2)CCC1 [MK2206] (first compound 0.0001 µM, partner dose 0.4 µM)",642,1540,214,87.5,684,631,341,655
"CS(=O)(=O)c1ccc(C(=O)Nc2ccc(Cl)c(-c3ccccn3)c2)c(Cl)c1 [vismodegib] + C#Cc1cccc(Nc2ncnc3cc(OCCOC)c(OCCOC)cc23)c1 [erlotinib] (first compound 1 µM, partner dose 0.8 µM)",98.3,818,123,276,71.3,93.8,130,355
"NC(=O)c1ccc(N(C(N)=O)c2c(F)cccc2F)nc1-c1ccc(F)cc1F + Clc1ccc(Nc2nnc(Cc3ccncc3)c3ccccc23)cc1 [vatalanib] (first compound 0.4 µM, partner dose 2 µM)",114,68.9,103,83,70.8,75.3,88.6,126
"Cn1sc(=O)n(Cc2ccccc2)c1=O + CN(c1ncccc1CNc1nc(Nc2ccc3c(c2)CC(=O)N3)ncc1C(F)(F)F)S(C)(=O)=O [PF562271] (first compound 0.4 µM, partner dose 0.08 µM)",58.6,93.7,81.2,169,36.9,32,188,61.8
"C[C@]1(O)C[C@@H](c2nc(-c3ccc4ccc(-c5ccccc5)nc4c3)c3c(N)nccn32)C1 + CCCS(=O)(=O)Nc1ccc(F)c(C(=O)c2c[nH]c3ncc(Cl)cc23)c1F [PLX4720] (first compound 0.4 µM, partner dose 0.08 µM)",88.9,28.1,76,82.7,358,231,138,126
"CCN(CC)CCNC(=O)c1c(C)[nH]c(/C=C2\C(=O)Nc3ccc(F)cc32)c1C [sunitinib] + CNC(=O)c1cc(Oc2ccc(NC(=O)Nc3ccc(Cl)c(C(F)(F)F)c3)cc2)ccn1 [sorafenib] (first compound 0.4 µM, partner dose 0.4 µM)",81.7,54.7,82.8,305,82.3,84.1,88.4,190
"C[C@@H](N)c1ccc(C(=O)Nc2ccnc3[nH]ccc23)cc1 + CS(=O)(=O)c1ccc(C(=O)Nc2ccc(Cl)c(-c3ccccn3)c2)c(Cl)c1 [vismodegib] (first compound 0.4 µM, partner dose 1 µM)",230,1360,97.1,300,213,245,91.6,215
"CCCCCCCCc1ccc(CCC(N)(CO)CO)cc1 [fingolimod] + C#Cc1cccc(Nc2ncnc3cc(OCCOC)c(OCCOC)cc23)c1 [erlotinib] (first compound 2 µM, partner dose 0.8 µM)",51.4,142,71,99.6,81.7,53.7,22.4,191
"CS(=O)(=O)c1ccc(C(=O)Nc2ccc(Cl)c(-c3ccccn3)c2)c(Cl)c1 [vismodegib] + Cc1nc(Nc2ncc(C(=O)Nc3c(C)cccc3Cl)s2)cc(N2CCN(CCO)CC2)n1 [dasatanib] (first compound 1 µM, partner dose 0.004 µM)",50.6,170,134,59.8,89.2,51.9,39.4,111
"CC1(C)CCC(c2ccc(Cl)cc2)=C(CN2CCN(c3ccc(C(=O)NS(=O)(=O)c4ccc(N[C@H](CCN5CCOCC5)CSc5ccccc5)c(S(=O)(=O)C(F)(F)F)c4)cc3)CC2)C1 + Cn1sc(=O)n(Cc2ccccc2)c1=O [TDZD-8] (first compound 0.4 µM, partner dose 0.4 µM)",350,462,255,94.2,91.4,189,155,40.4
"Cn1sc(=O)n(Cc2ccccc2)c1=O + CNC(=O)c1cc(Oc2ccc(NC(=O)Nc3ccc(Cl)c(C(F)(F)F)c3)cc2)ccn1 [sorafenib] (first compound 0.4 µM, partner dose 0.4 µM)",150,67.6,63.2,99.6,44,48.4,34.8,90.4
"Cn1sc(=O)n(Cc2ccccc2)c1=O + COc1ccc(C2=N[C@@H](c3ccc(Cl)cc3)[C@@H](c3ccc(Cl)cc3)N2C(=O)N2CCNC(=O)C2)c(OC(C)C)c1 [Nutlin-3] (first compound 0.4 µM, partner dose 0.1 µM)",119,116,43,242,81,99.3,39.2,103
"CN(c1ncccc1CNc1nc(Nc2ccc3c(c2)CC(=O)N3)ncc1C(F)(F)F)S(C)(=O)=O + COc1ccc(Cl)c(Nc2nc3ccccc3nc2NS(=O)(=O)c2cccc(NC(=O)C(C)(C)N)c2)c1 [XL147] (first compound 0.08 µM, partner dose 0.8 µM)",169,199,103,91.5,95.2,52.4,84.5,279

# Retrieved one by one from above, 2 records:
SMILES,cleaved PARP positive nuclei fraction (MZ2-MEL) [%],cleaved PARP positive nuclei fraction (MeWo) [%],cleaved PARP positive nuclei fraction (RPMI7951) [%],cleaved PARP positive nuclei fraction (RVH-421) [%],cleaved PARP positive nuclei fraction (SkMel28) [%],cleaved PARP positive nuclei fraction (SkMel2) [%],cleaved PARP positive nuclei fraction (SkMel30) [%],cleaved PARP positive nuclei fraction (UACC62) [%]
"CCN(CC)CCNC(=O)c1c(C)[nH]c(/C=C2\C(=O)Nc3ccc(F)cc32)c1C [sunitinib] + CCCS(=O)(=O)Nc1ccc(F)c(C(=O)c2c[nH]c3ncc(Cl)cc23)c1F [PLX4720] (first compound 0.4 µM, partner dose 0.08 µM)",35.8,40.8,48.2,137,92.5,66.3,256,466
"Cn1sc(=O)n(Cc2ccccc2)c1=O + COc1ccc(C2=N[C@@H](c3ccc(Cl)cc3)[C@@H](c3ccc(Cl)cc3)N2C(=O)N2CCNC(=O)C2)c(OC(C)C)c1 [Nutlin-3] (first compound 0.4 µM, partner dose 0.1 µM)",119,116,43,242,81,99.3,39.2,103
